Assay results taken from patent US20200157210A1.
These are yes or no findings as the source states them, for the method shown. For part of these data: Binding seen in cells or lysates may run through a third protein. Some binding calls cover weakened binding; strength is not graded here. Where a sequence is shown, tags or fusion partners need not be part of it. Each block holds one binder with its values, some of them ahead of it.

Experiments:
[1] = target: endogenous Kras (MIA PaCa2 cells) (UniProt P01116); test: binding to endogenous Kras in MIA PaCa2 cells (A of FIG. 14)
[2] = target: endogenous Kras (MIA PaCa2 cells) (UniProt P01116); test: co-immunoprecipitation with anti-HA antibody from MIA PaCa2 cells
[3] = target: endogenous Kras (MIA PaCa2 cells) (UniProt P01116); test: binding to endogenous Kras in MIA PaCa2 cells (A of FIG. 14), reference for the comparison

binding [1]: binds
B1: DE2.0-Y13-259-HA (scFv)
scFv: MDEQENDYDEPEVNDENQDYDEGSQVQLQQSGGGLVQPGRSLKLSCVVSGFTFSNYGMNWIRQTPGKGLEWVAYISSGSSYLYYAETVKGRFTISRDNAKNTLYLQMTSLRSEDTALYYCARHEGTGTDFFDYWGQGTTVTVSSGGGGSGGGGSGGGGSDIQLTQSPHSLSASLGETVSIECLASEGISNYLAWYQQKPGKSPQLLIYYASSLQDGVPSRFSGSGSGTQFSLKISNMQPEDEGVYYCQQAYKYPSTFGAGTKLEIKYPYDVPDYA

binding [2]: binds | binding [3]: binds
B2: s3Flag-scFv-Y13-259-HA (scFv)
scFv: MDYKDHDGDYKDHDIDYKDDDDKGSQVQLQQSGGGLVQPGRSLKLSCVVSGFTFSNYGMNWIRQTPGKGLEWVAYISSGSSYLYYAETVKGRFTISRDNAKNTLYLQMTSLRSEDTALYYCARHEGTGTDFFDYWGQGTTVTVSSGGGGSGGGGSGGGGSDIQLTQSPHSLSASLGETVSIECLASEGISNYLAWYQQKPGKSPQLLIYYASSLQDGVPSRFSGSGSGTQFSLKISNMQPEDEGVYYCQQAYKYPSTFGAGTKLEIKYPYDVPDYA
